From paper PMC4624959
These are yes or no findings as the source states them, for the method shown. Binding seen in cells or lysates may run through a third protein. Some results given as binding are weak or reduced against the parent protein; the word gives no strength. Sequences can lack the tags named with a protein.

The chains behind the UniProt entries cited, without tags or fusion partners.
UniProt Q9UKV8: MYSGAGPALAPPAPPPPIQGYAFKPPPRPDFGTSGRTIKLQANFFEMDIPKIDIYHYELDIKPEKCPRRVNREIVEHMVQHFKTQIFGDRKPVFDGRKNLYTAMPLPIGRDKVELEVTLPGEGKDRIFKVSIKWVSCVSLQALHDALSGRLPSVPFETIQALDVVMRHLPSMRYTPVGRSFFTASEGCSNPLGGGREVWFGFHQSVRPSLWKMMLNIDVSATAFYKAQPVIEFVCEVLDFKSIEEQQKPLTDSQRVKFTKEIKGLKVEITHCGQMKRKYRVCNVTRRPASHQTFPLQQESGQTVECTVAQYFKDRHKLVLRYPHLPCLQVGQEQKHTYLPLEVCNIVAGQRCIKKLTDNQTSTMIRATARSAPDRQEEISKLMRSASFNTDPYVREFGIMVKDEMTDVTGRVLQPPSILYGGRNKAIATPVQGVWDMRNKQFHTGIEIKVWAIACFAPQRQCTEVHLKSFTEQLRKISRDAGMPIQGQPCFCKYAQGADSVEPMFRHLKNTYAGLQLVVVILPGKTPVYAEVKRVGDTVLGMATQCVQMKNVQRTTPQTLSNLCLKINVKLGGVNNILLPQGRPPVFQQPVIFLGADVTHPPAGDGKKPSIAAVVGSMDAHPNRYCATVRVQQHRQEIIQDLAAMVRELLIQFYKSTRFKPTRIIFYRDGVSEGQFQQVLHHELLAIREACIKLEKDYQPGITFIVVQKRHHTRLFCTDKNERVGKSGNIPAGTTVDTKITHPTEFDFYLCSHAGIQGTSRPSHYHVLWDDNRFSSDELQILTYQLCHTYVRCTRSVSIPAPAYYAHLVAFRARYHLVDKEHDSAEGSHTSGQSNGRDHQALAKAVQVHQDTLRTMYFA

Target: T1, GST-PIAS3-PINIT (UniProt Q9Y6X2)
T1 sequence: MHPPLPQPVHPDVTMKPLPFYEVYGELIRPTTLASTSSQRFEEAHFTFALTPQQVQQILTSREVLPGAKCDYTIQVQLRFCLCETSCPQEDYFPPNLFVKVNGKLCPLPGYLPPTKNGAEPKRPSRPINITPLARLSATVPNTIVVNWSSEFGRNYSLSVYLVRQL
Experiment: pull-down; GST or GST-PINIT on glutathione sepharose beads, incubated with lysate of COS-7 cells transfected with myc-Ago2 (0.25-1 mg total protein), 4 °C, 1 h; washed in 10 mM HEPES, 150 mM NaCl, pH 7.5, 0.005% Triton-X100; western blot for myc; only the target purified

## myc-Ago2 (human myc-tagged Argonaute-2) (from UniProt Q9UKV8 1-859)
  binding: binds
